Laboratory results taken from the supplement of paper PMC10849652.
This is one part of the list.

Chains of the proteins cited; added tags and fusions are not shown. Lines headed by an entry give the natural chain unless they say otherwise; changes in a name come on top.
UniProt O14920: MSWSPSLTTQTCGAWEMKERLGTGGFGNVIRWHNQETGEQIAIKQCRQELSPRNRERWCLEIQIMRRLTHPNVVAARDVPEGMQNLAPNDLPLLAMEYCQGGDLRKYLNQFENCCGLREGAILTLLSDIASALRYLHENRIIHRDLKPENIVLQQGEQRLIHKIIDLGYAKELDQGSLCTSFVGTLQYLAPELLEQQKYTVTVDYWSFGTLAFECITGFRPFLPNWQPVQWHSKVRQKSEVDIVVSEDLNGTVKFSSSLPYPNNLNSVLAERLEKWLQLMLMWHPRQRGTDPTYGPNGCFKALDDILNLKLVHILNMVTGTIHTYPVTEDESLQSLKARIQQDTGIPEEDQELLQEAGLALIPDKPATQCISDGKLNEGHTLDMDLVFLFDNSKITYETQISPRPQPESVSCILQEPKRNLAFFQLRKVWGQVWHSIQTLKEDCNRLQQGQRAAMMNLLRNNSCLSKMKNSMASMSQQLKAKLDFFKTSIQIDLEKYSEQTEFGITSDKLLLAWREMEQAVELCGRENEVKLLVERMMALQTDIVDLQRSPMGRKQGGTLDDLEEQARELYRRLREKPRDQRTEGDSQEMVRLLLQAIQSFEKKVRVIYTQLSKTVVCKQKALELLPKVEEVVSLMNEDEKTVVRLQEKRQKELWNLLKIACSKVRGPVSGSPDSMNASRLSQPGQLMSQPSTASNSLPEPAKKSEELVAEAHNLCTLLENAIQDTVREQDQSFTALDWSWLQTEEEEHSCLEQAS
UniProt O75054: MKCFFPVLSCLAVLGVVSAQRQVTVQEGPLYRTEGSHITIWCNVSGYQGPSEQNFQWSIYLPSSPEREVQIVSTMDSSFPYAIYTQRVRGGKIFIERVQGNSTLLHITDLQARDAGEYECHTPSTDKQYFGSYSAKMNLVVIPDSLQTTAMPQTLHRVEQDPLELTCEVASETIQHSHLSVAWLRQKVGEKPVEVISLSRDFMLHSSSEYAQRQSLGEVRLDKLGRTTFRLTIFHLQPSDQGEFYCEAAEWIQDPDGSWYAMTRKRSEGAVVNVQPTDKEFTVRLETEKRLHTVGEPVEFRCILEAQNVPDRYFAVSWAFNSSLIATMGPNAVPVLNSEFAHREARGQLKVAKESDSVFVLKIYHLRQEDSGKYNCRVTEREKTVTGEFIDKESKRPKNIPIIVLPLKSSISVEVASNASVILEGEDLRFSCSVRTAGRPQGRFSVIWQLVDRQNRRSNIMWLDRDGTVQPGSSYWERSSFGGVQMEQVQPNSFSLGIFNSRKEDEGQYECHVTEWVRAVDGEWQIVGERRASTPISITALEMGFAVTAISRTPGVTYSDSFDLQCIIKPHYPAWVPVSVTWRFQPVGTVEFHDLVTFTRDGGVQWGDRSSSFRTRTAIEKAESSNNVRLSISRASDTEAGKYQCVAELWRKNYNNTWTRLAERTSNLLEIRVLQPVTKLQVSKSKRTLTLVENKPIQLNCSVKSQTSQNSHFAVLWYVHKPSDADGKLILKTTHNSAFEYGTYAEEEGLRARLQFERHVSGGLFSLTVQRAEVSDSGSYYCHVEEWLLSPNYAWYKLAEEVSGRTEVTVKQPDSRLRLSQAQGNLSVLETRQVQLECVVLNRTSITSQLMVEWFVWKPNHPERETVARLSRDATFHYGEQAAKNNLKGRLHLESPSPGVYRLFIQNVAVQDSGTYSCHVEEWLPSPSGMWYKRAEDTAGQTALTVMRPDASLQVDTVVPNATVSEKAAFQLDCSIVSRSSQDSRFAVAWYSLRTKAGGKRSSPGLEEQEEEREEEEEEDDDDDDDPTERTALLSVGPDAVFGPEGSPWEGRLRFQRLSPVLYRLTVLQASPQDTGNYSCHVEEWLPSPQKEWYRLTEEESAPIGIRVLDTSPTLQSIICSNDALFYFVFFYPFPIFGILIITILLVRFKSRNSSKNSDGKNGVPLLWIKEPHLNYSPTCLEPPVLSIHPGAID
UniProt Q27J81, whole entry, looked up: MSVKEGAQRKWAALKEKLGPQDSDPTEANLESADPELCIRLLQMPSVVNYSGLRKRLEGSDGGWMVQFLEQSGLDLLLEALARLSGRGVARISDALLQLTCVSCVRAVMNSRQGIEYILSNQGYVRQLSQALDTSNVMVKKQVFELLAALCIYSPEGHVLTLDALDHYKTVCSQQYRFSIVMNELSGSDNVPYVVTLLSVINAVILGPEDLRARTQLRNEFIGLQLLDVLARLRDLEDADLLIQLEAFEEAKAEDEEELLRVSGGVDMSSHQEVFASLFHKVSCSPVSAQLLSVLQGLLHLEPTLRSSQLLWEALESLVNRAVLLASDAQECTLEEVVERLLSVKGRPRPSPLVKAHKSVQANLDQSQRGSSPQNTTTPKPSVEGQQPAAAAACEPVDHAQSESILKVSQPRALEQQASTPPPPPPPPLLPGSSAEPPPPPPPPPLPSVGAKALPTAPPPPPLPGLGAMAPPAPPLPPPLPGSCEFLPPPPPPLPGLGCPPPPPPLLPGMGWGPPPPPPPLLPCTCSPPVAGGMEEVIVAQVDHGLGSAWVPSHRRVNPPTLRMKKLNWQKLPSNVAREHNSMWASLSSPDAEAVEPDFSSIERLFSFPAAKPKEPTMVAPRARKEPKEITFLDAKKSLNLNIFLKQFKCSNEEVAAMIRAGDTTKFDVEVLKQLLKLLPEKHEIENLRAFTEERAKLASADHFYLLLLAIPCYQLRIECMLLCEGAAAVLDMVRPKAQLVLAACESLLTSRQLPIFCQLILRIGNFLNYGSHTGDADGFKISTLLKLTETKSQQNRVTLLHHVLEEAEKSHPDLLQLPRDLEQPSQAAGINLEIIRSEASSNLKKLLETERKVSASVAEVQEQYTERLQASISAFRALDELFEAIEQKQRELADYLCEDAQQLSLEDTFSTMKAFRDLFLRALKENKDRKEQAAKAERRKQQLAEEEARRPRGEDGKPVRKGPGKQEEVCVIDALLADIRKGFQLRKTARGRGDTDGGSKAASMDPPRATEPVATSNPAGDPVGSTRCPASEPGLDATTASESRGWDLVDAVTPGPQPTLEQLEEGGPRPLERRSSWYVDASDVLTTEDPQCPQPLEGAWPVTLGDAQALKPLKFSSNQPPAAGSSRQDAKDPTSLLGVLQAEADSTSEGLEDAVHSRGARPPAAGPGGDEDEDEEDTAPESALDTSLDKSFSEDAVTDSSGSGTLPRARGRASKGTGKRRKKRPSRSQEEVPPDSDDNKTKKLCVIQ
UniProt O15357: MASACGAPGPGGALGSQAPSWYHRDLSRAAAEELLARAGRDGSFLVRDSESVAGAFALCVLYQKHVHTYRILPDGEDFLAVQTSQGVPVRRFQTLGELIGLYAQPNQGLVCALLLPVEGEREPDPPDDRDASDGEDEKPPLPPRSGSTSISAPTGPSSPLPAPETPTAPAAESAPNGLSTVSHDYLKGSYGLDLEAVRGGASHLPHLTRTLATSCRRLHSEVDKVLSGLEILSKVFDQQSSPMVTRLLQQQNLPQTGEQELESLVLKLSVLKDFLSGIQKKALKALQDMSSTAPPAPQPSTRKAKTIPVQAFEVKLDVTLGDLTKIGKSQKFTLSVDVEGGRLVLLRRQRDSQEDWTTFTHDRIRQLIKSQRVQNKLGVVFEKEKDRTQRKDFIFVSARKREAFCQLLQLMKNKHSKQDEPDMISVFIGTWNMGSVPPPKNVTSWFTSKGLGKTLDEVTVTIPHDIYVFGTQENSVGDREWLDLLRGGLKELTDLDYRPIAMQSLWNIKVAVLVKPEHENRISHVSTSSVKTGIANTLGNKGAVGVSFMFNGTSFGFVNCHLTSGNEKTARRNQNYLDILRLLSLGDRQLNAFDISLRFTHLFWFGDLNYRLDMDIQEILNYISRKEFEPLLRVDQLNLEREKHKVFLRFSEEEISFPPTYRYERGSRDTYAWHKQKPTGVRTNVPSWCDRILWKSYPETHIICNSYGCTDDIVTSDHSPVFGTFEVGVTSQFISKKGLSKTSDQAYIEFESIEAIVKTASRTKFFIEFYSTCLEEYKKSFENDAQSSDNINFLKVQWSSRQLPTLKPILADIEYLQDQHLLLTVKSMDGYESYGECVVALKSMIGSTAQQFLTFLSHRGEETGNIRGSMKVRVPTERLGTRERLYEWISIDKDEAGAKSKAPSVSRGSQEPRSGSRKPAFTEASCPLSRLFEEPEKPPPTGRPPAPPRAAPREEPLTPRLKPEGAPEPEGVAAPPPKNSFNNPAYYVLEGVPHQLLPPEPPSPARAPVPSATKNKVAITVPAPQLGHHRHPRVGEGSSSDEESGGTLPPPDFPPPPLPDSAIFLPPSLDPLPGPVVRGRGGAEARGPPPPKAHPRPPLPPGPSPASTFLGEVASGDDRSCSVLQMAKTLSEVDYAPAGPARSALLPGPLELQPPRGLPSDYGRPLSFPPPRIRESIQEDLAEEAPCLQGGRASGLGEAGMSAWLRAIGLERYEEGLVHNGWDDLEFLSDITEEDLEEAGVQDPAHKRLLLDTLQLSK
UniProt Q70UQ0: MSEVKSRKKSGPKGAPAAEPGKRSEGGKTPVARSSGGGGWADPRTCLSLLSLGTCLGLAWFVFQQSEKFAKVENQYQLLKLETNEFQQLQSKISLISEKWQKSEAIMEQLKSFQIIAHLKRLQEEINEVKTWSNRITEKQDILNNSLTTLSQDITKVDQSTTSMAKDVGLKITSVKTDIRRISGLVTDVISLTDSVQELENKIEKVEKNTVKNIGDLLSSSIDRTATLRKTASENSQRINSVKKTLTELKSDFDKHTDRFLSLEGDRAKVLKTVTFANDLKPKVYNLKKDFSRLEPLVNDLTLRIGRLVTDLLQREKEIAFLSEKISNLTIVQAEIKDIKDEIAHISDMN
UniProt O43837: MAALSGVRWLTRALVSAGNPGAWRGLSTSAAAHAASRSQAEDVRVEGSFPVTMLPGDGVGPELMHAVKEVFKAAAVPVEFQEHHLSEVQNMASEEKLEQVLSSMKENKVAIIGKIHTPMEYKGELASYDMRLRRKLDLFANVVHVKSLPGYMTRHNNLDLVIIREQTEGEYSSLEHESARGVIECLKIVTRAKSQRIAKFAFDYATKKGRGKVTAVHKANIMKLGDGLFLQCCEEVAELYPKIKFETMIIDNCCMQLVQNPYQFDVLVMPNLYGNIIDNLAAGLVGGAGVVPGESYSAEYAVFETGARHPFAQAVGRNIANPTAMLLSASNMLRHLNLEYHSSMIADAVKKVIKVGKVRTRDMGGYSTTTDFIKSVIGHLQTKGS
UniProt P80217: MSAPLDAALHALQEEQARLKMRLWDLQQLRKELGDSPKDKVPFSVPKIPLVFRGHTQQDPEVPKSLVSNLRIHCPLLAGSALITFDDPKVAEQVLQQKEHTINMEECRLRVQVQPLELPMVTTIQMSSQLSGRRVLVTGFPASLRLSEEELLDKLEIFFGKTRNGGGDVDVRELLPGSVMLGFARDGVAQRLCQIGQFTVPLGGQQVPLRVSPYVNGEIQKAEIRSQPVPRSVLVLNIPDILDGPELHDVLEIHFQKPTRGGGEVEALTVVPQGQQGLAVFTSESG
UniProt A1L0T0: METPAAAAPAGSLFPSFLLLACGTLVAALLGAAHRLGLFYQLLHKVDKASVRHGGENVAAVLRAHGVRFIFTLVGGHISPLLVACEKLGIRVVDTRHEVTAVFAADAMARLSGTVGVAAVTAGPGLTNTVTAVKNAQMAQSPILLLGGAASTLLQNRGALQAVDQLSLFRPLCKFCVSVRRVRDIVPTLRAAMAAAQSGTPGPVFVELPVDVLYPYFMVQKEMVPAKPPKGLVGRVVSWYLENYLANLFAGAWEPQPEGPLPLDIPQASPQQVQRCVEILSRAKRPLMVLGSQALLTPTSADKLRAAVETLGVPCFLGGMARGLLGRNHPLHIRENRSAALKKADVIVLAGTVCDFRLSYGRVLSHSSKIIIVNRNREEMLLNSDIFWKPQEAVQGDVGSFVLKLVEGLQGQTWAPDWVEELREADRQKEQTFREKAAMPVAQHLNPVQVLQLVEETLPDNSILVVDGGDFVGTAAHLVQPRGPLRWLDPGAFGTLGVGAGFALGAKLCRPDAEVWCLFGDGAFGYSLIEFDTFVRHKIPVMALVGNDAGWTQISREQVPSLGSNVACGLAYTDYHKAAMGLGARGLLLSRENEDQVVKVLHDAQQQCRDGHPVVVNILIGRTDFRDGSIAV
UniProt Q12905: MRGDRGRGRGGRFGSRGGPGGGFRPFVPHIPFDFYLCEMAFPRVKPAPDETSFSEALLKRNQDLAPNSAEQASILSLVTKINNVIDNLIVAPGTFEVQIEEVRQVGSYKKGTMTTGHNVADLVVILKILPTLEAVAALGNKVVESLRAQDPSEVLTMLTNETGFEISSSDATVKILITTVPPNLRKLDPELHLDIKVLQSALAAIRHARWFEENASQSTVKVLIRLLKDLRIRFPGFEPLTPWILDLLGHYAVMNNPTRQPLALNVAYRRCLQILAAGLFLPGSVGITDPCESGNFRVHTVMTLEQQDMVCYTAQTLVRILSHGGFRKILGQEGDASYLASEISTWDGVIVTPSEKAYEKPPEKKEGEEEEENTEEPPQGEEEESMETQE

Tests used:
Assay in all cases: log2 fold change, soluble protein after heating vs DMSO (PISA); higher = thermal stabilisation; K562 lysate, 10 uM; active = over 0.2 and 3.5 SD of the protein, either way, in both replicates (recomputed)
ibrutinib = compound: C=CC(=O)N1CCC[C@@H](n2nc(-c3ccc(Oc4ccccc4)cc3)c3c(N)ncnc32)C1 [ibrutinib]
Outline: (§1)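 Soluble protein was defined as the supernatant remaining after 21,000xg for 90 min, following pooling of heated aliquots and adjustment to 0.5% NP-40 at 4°C. Before that, crude K562 extract at 1 mg/mL protein in PBS pH 7.4 with 1 mM MgCl2 was treated with 10 μM compound for 30 min and heated for 3 min across 48°C-58°C. Quantification used TMTpro 16plex LC-MS/MS with channel sums equalised, and values are log-two fold changes in thermal stability relative to solvent controls from duplicates.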

[1] = compound: CC(=O)c1cnc2ccc(-c3cc(Cl)c(O)c(Cl)c3)nc2c1N[C@H]1CC[C@H](CN(C)C)CC1
Outline: as §1

ralimetinib = compound: CC(C)(C)Cn1c(N)nc2ccc(-c3[nH]c(C(C)(C)C)nc3-c3ccc(F)cc3)nc21 [ralimetinib]
Outline: as §1

[2] = compound: CC(C)(O)CC(=O)NCCn1ccc2ncnc(Nc3ccc(Oc4cccc(C(F)(F)F)c4)c(Cl)c3)c21
Outline: as §1

[3] = compound: CC(C)C1=C2N=C(C=C(N2N=C1)NCC3=CC=CC=C3)NCCCCCCN
Outline: as §1

[4] = compound: CC1=C(C(CC(=O)N1)C2=CC=C(C=C2)C(F)(F)F)C(=O)NC3=C(C=C4C(=C3)C=NN4)F
Outline: as §1

[5] = compound: CC1=C(C2=C(C=C1)C(=O)C3=CC=CC=C3N2CCCN)C
Outline: as §1

[6] = compound: CC1=C(C=C(C=C1)NC(=O)C2=CC(=CC=C2)C(C)(C)C#N)NC3=CC4=C(C=C3)N=CN(C4=O)C
Outline: as §1

[7] = compound: CC1=C(C=C(C=C1)NC(=O)C2=CC(=CC=C2)N(C)C)NC(=O)C3=CC=C(C=C3)O
Outline: as §1

[8] = compound: CC1=CC=C(C=C1)SC2=C3C=C(SC3=CN=C2)C(=O)N
Outline: as §1

vemurafenib = compound: CCCS(=O)(=O)Nc1ccc(F)c(C(=O)c2c[nH]c3ncc(-c4ccc(Cl)cc4)cc23)c1F [vemurafenib]
Outline: as §1

[9] = compound: CCCS(=O)(=O)Nc1ccc(F)c(C(=O)c2c[nH]c3ncc(Cl)cc23)c1F
Outline: as §1

barasertib = compound: CCN(CCCOc1ccc2c(Nc3cc(CC(=O)Nc4cccc(F)c4)[nH]n3)ncnc2c1)CCOP(=O)(O)O [barasertib]
Outline: as §1

[10] = compound: CC[C@@H]1C(=O)N(C)c2cnc(Nc3ccc(C(=O)NC4CCN(C)CC4)cc3OC)nc2N1C1CCCC1
Outline: as §1

volasertib = compound: CC[C@@H]1C(=O)N(C)c2cnc(Nc3ccc(C(=O)N[C@H]4CC[C@H](N5CCN(CC6CC6)CC5)CC4)cc3OC)nc2N1C(C)C [volasertib]
Outline: as §1

[11] = compound: CCn1c(C(=O)N(C2CC2)C2CC2)cc2c3c(ncn3C)c(Nc3cc(C)n(C)n3)nc21
Outline: as §1

[12] = compound: CCn1cc(-c2ccnc3[nH]c(-c4cccc(CN(C)C)c4)cc23)c(-c2ccc(NC(=O)N(C)C)cc2)n1
Outline: as §1

[13] = compound: CN1CCC(CNc2ccc3ncc(-c4cccc(OC(F)(F)F)c4)n3n2)CC1
Outline: as §1

saracatinib = compound: CN1CCN(CCOc2cc(OC3CCOCC3)c3c(Nc4c(Cl)ccc5c4OCO5)ncnc3c2)CC1 [saracatinib]
Outline: as §1

sotrastaurin = compound: CN1CCN(c2nc(C3=C(c4c[nH]c5ccccc45)C(=O)NC3=O)c3ccccc3n2)CC1 [sotrastaurin]
Outline: as §1

Measured: log2 fold change

IKBKB (UniProt O14920)
inactive: ibrutinib -0.003 | [1] 0.031 | ralimetinib 0.051 | [2] -0.053 | [3] -0.016 | [4] -0.001 | [5] -0.079 | [6] 0.007 | [7] 0.041 | [8] 0.006 | vemurafenib 0.061 | [9] 0.025 | barasertib 0.013 | [10] -0.005 | volasertib -0.038 | [11] 0.047 | [12] 0.06 | [13] -0.052 | saracatinib 0.016 | sotrastaurin 0.019

IGSF3 (UniProt O75054)
inactive: ibrutinib 0.063 | [1] -0.016 | ralimetinib 0.006 | [2] -0.038 | [3] -0.004 | [4] 0.028 | [5] -0.083 | [6] 0.012 | [7] 0 | [8] -0.043 | vemurafenib -0.101 | [9] -0.012 | barasertib 0.056 | [10] 0.056 | volasertib 0.005 | [11] -0.043 | [12] -0.037 | [13] 0.106 | saracatinib -0.07 | sotrastaurin 0.076

INF2 (UniProt Q27J81)
inactive: ibrutinib 0.036 | [1] -0.007 | ralimetinib 0.018 | [2] 0.049 | [3] -0.012 | [4] 0.004 | [5] 0.07 | [6] -0.004 | [7] -0.027 | [8] -0.015 | vemurafenib 0 | [9] -0.059 | barasertib 0.104 | [10] -0.07 | volasertib -0.052 | [11] -0.01 | [12] -0.064 | [13] -0.045 | saracatinib 0.036 | sotrastaurin 0.019

INPP5B (UniProt P32019)
inactive: ibrutinib 0.019 | [1] 0.013 | ralimetinib -0.015 | [2] -0.052 | [3] -0.009 | [4] 0.04 | [5] -0.001 | [6] 0 | [7] 0.003 | [8] -0.001 | vemurafenib 0.026 | [9] 0.041 | barasertib 0.015 | [10] -0.016 | volasertib -0.037 | [11] 0.022 | [12] -0.139 | [13] 0.095 | saracatinib 0.021 | sotrastaurin 0.038

INPPL1 (UniProt O15357)
inactive: ibrutinib 0.012 | [1] 0.02 | ralimetinib 0.049 | [2] -0.013 | [3] 0.004 | [4] 0.011 | [5] -0.005 | [6] -0.001 | [7] 0.034 | [8] 0.014 | vemurafenib 0.023 | [9] 0.01 | barasertib 0.028 | [10] -0.02 | volasertib -0.047 | [11] 0.095 | [12] -0.017 | [13] -0.06 | saracatinib 0.005 | sotrastaurin 0.019

IMPACT (UniProt Q9P2X3)
inactive: ibrutinib -0.19 | [1] -0.075 | ralimetinib 0.061 | [2] 0.001 | [3] -0.065 | [4] 0.289 | [5] 0.034 | [6] 0.146 | [7] 0.14 | [8] -0.052 | vemurafenib 0.158 | [9] -0.117 | barasertib -0.014 | [10] -0.095 | volasertib 0.053 | [11] 0.133 | [12] 0.003 | [13] -0.122 | saracatinib 0.001 | sotrastaurin 0.058

IKBIP (UniProt Q70UQ0)
inactive: ibrutinib 0.013 | [1] 0.001 | ralimetinib 0.041 | [2] -0.049 | [3] -0.054 | [4] 0.109 | [5] 0.001 | [6] -0.074 | [7] -0.011 | [8] 0.019 | vemurafenib -0.051 | [9] 0.008 | barasertib 0.004 | [10] -0.018 | volasertib -0.006 | [11] -0.007 | [12] -0.058 | [13] 0.018 | saracatinib 0.011 | sotrastaurin -0.039

Random excerpt: 2 records from the list
IKBIP (UniProt Q70UQ0)
inactive: ibrutinib 0.013 | [1] 0.001 | ralimetinib 0.041 | [2] -0.049 | [3] -0.054 | [4] 0.109 | [5] 0.001 | [6] -0.074 | [7] -0.011 | [8] 0.019 | vemurafenib -0.051 | [9] 0.008 | barasertib 0.004 | [10] -0.018 | volasertib -0.006 | [11] -0.007 | [12] -0.058 | [13] 0.018 | saracatinib 0.011 | sotrastaurin -0.039

IMPACT (UniProt Q9P2X3)
inactive: ibrutinib -0.19 | [1] -0.075 | ralimetinib 0.061 | [2] 0.001 | [3] -0.065 | [4] 0.289 | [5] 0.034 | [6] 0.146 | [7] 0.14 | [8] -0.052 | vemurafenib 0.158 | [9] -0.117 | barasertib -0.014 | [10] -0.095 | volasertib 0.053 | [11] 0.133 | [12] 0.003 | [13] -0.122 | saracatinib 0.001 | sotrastaurin 0.058

The list goes on:

HSPB1 (UniProt P04792)
inactive: ibrutinib -0.015 | [1] -0.008 | ralimetinib 0.022 | [2] -0.016 | [3] 0.012 | [4] 0 | [5] 0.016 | [6] -0.117 | [7] 0.006 | [8] 0.003 | vemurafenib -0.001 | [9] -0.003 | barasertib 0.019 | [10] 0.008 | volasertib -0.02 | [11] 0.01 | [12] 0.005 | [13] -0.042 | saracatinib 0.024 | sotrastaurin 0.005

IDH3B (UniProt O43837)
inactive: ibrutinib 0.007 | [1] 0.002 | ralimetinib 0.024 | [2] 0.015 | [3] -0.006 | [4] 0.045 | [5] -0.009 | [6] -0.015 | [7] 0.018 | [8] 0.009 | vemurafenib 0.035 | [9] -0.006 | barasertib 0.031 | [10] 0.043 | volasertib -0.004 | [11] -0.012 | [12] -0.026 | [13] 0.003 | saracatinib 0.008 | sotrastaurin -0.01

IMPDH1 isoform 6 (UniProt P20839)
inactive: ibrutinib -0.007 | [1] 0.009 | ralimetinib 0.034 | [2] -0.007 | [3] 0.01 | [4] -0.039 | [5] 0.033 | [6] 0.014 | [7] -0.005 | [8] -0.004 | vemurafenib -0.006 | [9] -0.015 | barasertib -0.01 | [10] 0.003 | volasertib -0.002 | [11] -0.006 | [12] -0.128 | [13] 0.021 | saracatinib 0.003 | sotrastaurin -0.024

ILKAP (UniProt Q9H0C8)
inactive: ibrutinib -0.018 | [1] 0 | ralimetinib -0.007 | [2] 0.031 | [3] -0.032 | [4] 0.007 | [5] 0.037 | [6] -0.016 | [7] 0 | [8] -0.002 | vemurafenib -0.037 | [9] -0.01 | barasertib -0.04 | [10] -0.048 | volasertib -0.017 | [11] 0.002 | [12] 0.016 | [13] 0 | saracatinib -0.013 | sotrastaurin 0.021

IBTK (UniProt Q9P2D0)
inactive: ibrutinib 0.027 | [1] -0.118 | ralimetinib 0.06 | [2] -0.018 | [3] 0.049 | [4] 0.015 | [5] -0.058 | [6] -0.013 | [7] 0.074 | [8] 0.01 | vemurafenib 0.07 | [9] 0.089 | barasertib -0.029 | [10] 0.015 | volasertib 0.015 | [11] -0.021 | [12] 0.168 | [13] -0.081 | saracatinib 0.021 | sotrastaurin -0.028

IFI35 isoform 2 (UniProt P80217)
inactive: ibrutinib 0.016 | [1] -0.003 | ralimetinib 0.001 | [2] -0.046 | [3] -0.043 | [4] 0.02 | [5] -0.002 | [6] 0.015 | [7] -0.022 | [8] 0 | vemurafenib 0.001 | [9] 0.003 | barasertib 0.008 | [10] -0.006 | volasertib 0.02 | [11] -0.014 | [12] -0.217 | [13] 0.053 | saracatinib -0.015 | sotrastaurin -0.006

IFRD1 (UniProt O00458)
inactive: ibrutinib -0.082 | [1] 0.018 | ralimetinib 0.029 | [2] -0.044 | [3] -0.114 | [4] 0 | [5] -0.028 | [6] -0.004 | [7] 0.032 | [8] 0 | vemurafenib -0.127 | [9] -0.048 | barasertib -0.036 | [10] -0.064 | volasertib -0.048 | [11] -0.006 | [12] 0.094 | [13] -0.076 | saracatinib -0.024 | sotrastaurin 0.008

ILVBL (UniProt A1L0T0)
inactive: ibrutinib 0.036 | [1] 0.012 | ralimetinib 0.013 | [2] -0.061 | [3] 0.009 | [4] -0.034 | [5] -0.003 | [6] -0.07 | [7] -0.034 | [8] 0.009 | vemurafenib 0.181 | [9] 0.04 | barasertib -0.05 | [10] 0.043 | volasertib 0.035 | [11] -0.016 | [12] -0.111 | [13] 0.065 | saracatinib 0 | sotrastaurin -0.01

ILF2 (UniProt Q12905)
inactive: ibrutinib 0 | [1] -0.02 | ralimetinib -0.017 | [2] -0.003 | [3] -0.003 | [4] 0.003 | [5] -0.068 | [6] 0.01 | [7] 0 | [8] -0.007 | vemurafenib 0.004 | [9] 0.015 | barasertib -0.004 | [10] 0.038 | volasertib 0.005 | [11] -0.013 | [12] 0.02 | [13] -0.022 | saracatinib -0.008 | sotrastaurin -0.009
